Measured values: ChEMBL document CHEMBL4130349, “Discovery and structure-activity relationship studies of 2-benzylidene-2,3-dihydro-1H-inden-1-one and benzofuran-3(2H)-one derivatives as a novel class of potential therapeutics for inflammatory bowel disease” (Eur J Med Chem, 2017)

System: HT-29
Test: Inhibition of TNF-alpha-induced adhesion of BCECF-labeled human U937 cells to human HT-29 cells at 10 uM preincubated for 1 hr followed by TNF-alpha challenge measured after 3 hrs by fluorescence microscopic method relative to control
Type: functional

Structure (SMILES): O=C1/C(=C/c2ccncc2)Cc2ccccc21
- inhibition at 10 µM: 52.1%
